Assay results from PubChem BioAssay AID1259415 (National Center for Advancing Translational Sciences (NCATS), 2018).
The whole screen tested about 410,000 compounds, of which about 18,000 (4.4%) were called active. Inconclusive means that the source gave no clear call. Such entries were picked first, then a sample of the others. Cut-off read from the data, not from the text of the source: active = activity change below about -60%; inconclusive = no clear call, values can overlap the other calls; inactive = above about -39%.

Experiment: qHTS Assay for inhibitors of the human cytomegalovirus (HCMV)
Settings: HFF cells, HCMV-luciferase reporter, 72 h; at 57.5 µM; active compounds read low
Method in brief: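 Luciferase read-out from HCMV-luciferase-infected HFFs (MOI 1 PFU/cell) 72 h post infection at 37C; compounds added after 16 h cell attachment; activity normalized between buffer-only basal and Salinomycin (10uM) inhibitor controls.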
% is set by controls: 0 for no effect and ±100 for the full control effect.

| Compound | activity change, negative = inhibition |
| --- | --- |
| Cc1ccc(NC(=O)Cc2nc(COC(=O)Cc3cccc(C(F)(F)F)c3)cs2)cc1 | inactive: 15.1% |
| Cc1sc2nc(CSc3ccccc3)nc(N3CCN(C)CC3)c2c1C | inconclusive: -54.4% |
| CC(=O)[C@@]1(O)CC[C@H]2[C@@H]3C[C@H](C)C4=CC(=O)CC[C@]4(C)[C@H]3CC[C@@]21C | inconclusive: -40.7% |
| Cc1cccc2sc(NC(=O)C3CC3)nc12 | inactive: 29.5% |
| CN(c1ccc(C(=O)Nc2ccccc2C(F)(F)F)cc1)S(C)(=O)=O | inconclusive: -55% |
| NNc1ncnc2scc(-c3ccc(Cl)cc3)c12 | active: -98.6% |
| COc1ccc(C(=O)NCCc2ccccc2)cc1[N+](=O)[O-] | inactive: 6.87% |
| Cc1ccccc1NC(=O)c1c(NC(=O)c2ccco2)sc2c1CCC(C(C)(C)C)C2 (stereo not given) | inactive: -6.56% |
| O=c1[nH]c2ccccc2cc1CN(Cc1ccco1)S(=O)(=O)c1ccc(F)cc1 | inconclusive: -54.1% |
| O=C(CCC1CCCN(Cc2ccncc2)C1)NCc1ccc(F)c(F)c1 (stereo not given) | inactive: -33.7% |
| Cc1[nH]c2ccccc2c1C(c1ccccc1)c1ccc(Cl)s1 (stereo not given) | inconclusive: -57.9% |
| Cc1ccc(C(=O)OCC(=O)Nc2ccc(F)c(Cl)c2)o1 | inactive: -6.55% |
| COc1cc(OC)cc(C(=O)Nc2ccccc2-c2nnn(CC(N)=O)n2)c1 | inconclusive: -48.2% |
| CCOC(=O)c1cnc(NCc2ccccc2)nc1C | inactive: 1.09% |
| Cc1cc2c(cc1C)CSC(c1ccccc1OC(=O)C(C)C)SC2 | inconclusive: -51% |
| Cc1cnc(NC(=O)CN2CCN(c3ccccn3)CC2)s1 | active: -96.9% |
| CC1CCCC(NC(=O)c2ccc(CNc3c(N4CCCC4)c(=O)c3=O)cc2)C1C (stereo not given) | inconclusive: -48.7% |
| O=C(Nc1cccc(S(=O)(=O)N2CCOCC2)c1)c1ccc(N2CCOCC2)c([N+](=O)[O-])c1 | inconclusive: -55.7% |
| C#CCOCCOCCOCCNc1nc(N2CCN(C(=O)[C@H](CCCCN)n3cc([C@@H](N)C(C)CC)nn3)CC2)nc(N2CCN(C(=O)[C@H](CCCCN)n3cc([C@@H](N)CC(C)C)nn3)CC2)n1 (stereo not given in full) | inconclusive: -50.2% |
| CCOc1ccccc1NC(=O)Cn1nnc(C(=O)NCc2ccco2)c1N | active: -89.8% |
| CC(=O)N1CCN(C(=O)c2cc3ccccc3o2)CC1 | inconclusive: -40.1% |
| NS(=O)(=O)c1ccc(CCNC(=O)CNCCc2ccc(C(F)(F)F)cc2)cc1 | active: -61.4% |

Some of the entries above in another layout.
Compound	activity change, negative = inhibition
Cc1cccc2sc(NC(=O)C3CC3)nc12	inactive: 29.5%
Cc1ccc(C(=O)OCC(=O)Nc2ccc(F)c(Cl)c2)o1	inactive: -6.55%

Look-ups from above.
In activity change, negative = inhibition, CC(=O)[C@@]1(O)CC[C@H]2[C@@H]3C[C@H](C)C4=CC(=O)CC[C@]4(C)[C@H]3CC[C@@]21C has inconclusive: -40.7%
In activity change, negative = inhibition, NNc1ncnc2scc(-c3ccc(Cl)cc3)c12 has active: -98.6%
In activity change, negative = inhibition, Cc1ccc(NC(=O)Cc2nc(COC(=O)Cc3cccc(C(F)(F)F)c3)cs2)cc1 has inactive: 15.1%

(more compounds)

| Compound | activity change, negative = inhibition |
| --- | --- |
| CC(C)CN1CCC(=O)N([C@H](CSc2ccc(Br)cc2)c2ccccc2)CC1 | inconclusive: -42.5% |
| COC(=O)c1ccc(CNc2ccc(C(C)=O)cc2)cc1 | inactive: 4.71% |
| COc1ccc(CNCC(O)COCc2cccs2)cc1 (stereo not given) | inactive: 35.1% |
| Cc1ccc(C)c(OCC(=O)Nc2ccc(S(=O)(=O)Nc3ccccn3)cc2)c1C | inconclusive: -43.2% |
| O=C(NC(=S)Nc1cccc(NC(=O)c2ccc(Cl)cc2Cl)c1)c1cccs1 | inconclusive: -48.1% |
| CCOc1ccc(CNC(=O)c2cnc3sc(N4CCOCC4)nn3c2=O)cc1OC | inactive: -32.6% |
| O=[N+]([O-])c1ccc2c(c1)ncn2-c1ccccc1 | active: -70.1% |
| CC(C)c1nc2ccc(C(=O)NCCCN3CCN(c4cccc(Cl)c4)CC3)cc2o1 | inconclusive: -40.7% |
| COc1cccc(CN2CCC2(C)C(=O)Nc2ccc(C)c(O)c2)c1F (stereo not given) | inconclusive: -55.3% |
| COc1ccc2oc(C(=O)Nc3ccc(N4CCOCC4)cc3)c(C)c2c1 | inconclusive: -52.1% |
| COc1ccc(CCNC(=O)Nc2ccc3c(c2)c(=O)n(C)n3CC=C(C)C)cc1OC | inconclusive: -54.5% |
| Cc1cc(=O)n2c3ccccc3n(CC(O)CN3CCN(CCO)CC3)c2c1C#N (stereo not given) | inactive: -17.1% |
| CCOc1ccc(NC(=S)N2CCN(c3ccc(N4CCOCC4)nn3)CC2)cc1 | inconclusive: -44.6% |
| Cc1cc(C)cc(N(CCC#N)C(=O)COC(=O)C2CCN(c3ccc(C(F)(F)F)cn3)CC2)c1 | inactive: 23.8% |
| O=C(/C=C/c1ccco1)N/C(=C\c1ccco1)C(=O)NCCc1nc2ccccc2[nH]1 | inconclusive: -40.9% |
| Cc1cc(C(O)c2ncc(-c3ccc(Oc4ccccc4)cc3)[nH]2)ccc1F (stereo not given) | inactive: -8.48% |
| Cc1cc(C)cc(NC(=O)N2CCC(CN3CCCCCC3)CC2)c1 | inactive: -0.285% |
| COc1ccc(N(CC(=O)NCCC2=CCCCC2)S(=O)(=O)c2ccccc2F)cc1 | inconclusive: -48% |
| O=C(O)CCCN1C(=O)/C(=C\c2ccco2)SC1=S | inconclusive: -41.5% |
| CCOC(=O)N1CCC(N2C(=O)c3ccccc3C2Nc2ccc3c(c2)OCCO3)CC1 (stereo not given) | inconclusive: -43.8% |
| COc1cccc(-c2cc(C(=O)NCc3ccco3)c3ccccc3n2)c1 | inactive: -23.7% |
| COc1ccc(NC(=O)CC2Oc3ccccc3NC2=O)c(OC)c1 (stereo not given) | inconclusive: -44.3% |

| Compound | activity change, negative = inhibition |
| --- | --- |
| COc1ccc2cc(C#N)c(N3CCN(Cc4nnnn4CCC(C)C)CC3)nc2c1 | inconclusive: -52% |
| Oc1[nH]c2c(Cl)cc(Cl)cc2c1N=NC(=S)NCC1CCCO1 (stereo not given) | active: -68.1% |
| COc1ccc(C#Cc2cccc(-c3nc(C(=O)NCc4ccc(Oc5ccccc5)cc4)cc4c3[C@@H](CCO)N(S(=O)C(C)(C)C)C4)c2)cc1OC (stereo not given in full) | inactive: -28% |
| COc1ccccc1-c1cc(NC=O)c2ncc(-c3ccc(F)cc3)n2c1 | inconclusive: -53.7% |
| CCc1nc2c(OCc3ccccc3)cccn2c1N(C)C(=O)c1ccc2c(c1)OCO2 | inactive: -2.91% |
| CC1Cc2nc(SCC(=O)Nc3ccccc3F)n(C)c(=O)c2S1 (stereo not given) | inconclusive: -43.1% |
| O=c1[nH]c2ccccc2n1C1CCN(C(c2ccnc3ccccc23)c2nnnn2-c2ccc3c(c2)OCCO3)CC1 (stereo not given) | active: -75.7% |
| COC(=O)CC1N(S(=O)(=O)c2ccc(C)cc2)c2ccccc2C1(C(=O)OC)C(=O)OC (stereo not given) | inactive: 2.37% |
| Cc1ccc(OCc2nnc(SCc3nc4ccccc4[nH]3)n2Cc2ccco2)cc1 | active: -68.9% |
| Cn1ncc(Br)c1C(=O)NC1C2CC3CC(C2)CC1C3 (stereo not given) | inconclusive: -40.4% |
| O=C(CN1CCN(Cc2ccccc2Cl)C1=O)NC1CCCCCCC1 | inconclusive: -47.8% |
| CC(C)(C)NC(=O)c1ccc2nsnc2c1 | inactive: -7.23% |
| COc1ccc(CN2CCN(Cc3ccc4ccccc4c3)CC2)cc1OC | active: -64.9% |
| CC(=O)CSc1ccc(-c2nc3cc(C)c(C)cc3[nH]2)cn1 | active: -99.6% |
| C=C(C(=O)c1ccccc1)C(C)C(=C)C(=O)c1ccccc1 | active: -99.9% |
| COc1cc(CNCc2ccncc2)cc(Br)c1OCc1ccccc1F | active: -90.3% |
| Cc1nc(-c2ccc(S(=O)(=O)Oc3ccc(Cl)cc3Cl)s2)cs1 | inconclusive: -43% |
| C#CCN1CC(COc2ccccc2)Oc2cccc(Oc3ccc(C(C)C)cc3)c2S1(=O)=O (stereo not given) | inconclusive: -40.5% |
| O=C(NCC1CCCCC1)c1ccc(=O)[nH]c1 | inactive: -23.2% |
| CCN1C(=NCCN2CCOCC2)N[C@@H](c2ccccc2)C(C(=O)OC)=C1C | inconclusive: -44% |
| C=CCn1c(CNC(=O)c2ccccc2F)nnc1SCC(=O)N1CCOCC1 | inactive: -20.6% |
| C=CCn1c(CCC(O)COCCCCC)n[nH]c1=S (stereo not given) | active: -96.6% |

| Compound | activity change, negative = inhibition |
| --- | --- |
| COc1cccc(NC(=S)N(Cc2cccc(Br)c2)CC2CCC(C(=O)O)CC2)c1 (stereo not given) | inconclusive: -43.1% |
| CS(=O)(=O)c1ccc(C(=O)OCC(=O)NC(=O)C2CCCCC2)cc1[N+](=O)[O-] | active: -77.2% |
| Cc1cc2nnc(SCC(=O)Nc3cccc(S(=O)(=O)N4CCOCC4)c3)n2c2ccccc12 | inconclusive: -41.6% |
| CC(=O)c1c(C)[nH]c(C(=O)OCc2ccccc2F)c1C | inconclusive: -47.4% |
| COc1ccc(CCNC(=O)CSc2ccc(-c3ccco3)nn2)cc1OC | active: -63.2% |
| O=C(N/N=C/c1ccc([N+](=O)[O-])s1)C(O)c1ccccc1 (stereo not given) | active: -91% |
| COc1ccc(NS(=O)(=O)c2ccc(N/N=C(\C)c3ccncc3)c([N+](=O)[O-])c2)cc1 | active: -66.5% |
| O=C(CSc1ccsc1[N+](=O)[O-])NC1CCCC1 | inconclusive: -50.9% |
| Cn1c(=O)n(C)c2cc([N+](=O)[O-])c(N3CCN(C(=O)c4ccccc4Cl)CC3)cc21 | active: -77.7% |
| Cc1ccccc1OCc1nc2c3cnn(-c4cccc(F)c4)c3ncn2n1 | inactive: 27% |
| C/C(=N/NC(=O)Cc1cccc2ccccc12)c1cccs1 | inconclusive: -59% |
| COC(=O)[C@@]1(Cc2ccc(OC)cc2)[C@H]2c3cc(C(=O)N(C)C)n(Cc4c(CO)[nH]cc(C)c4=O)c3C[C@H]2CN1C(=O)c1ccccc1 | inactive: 7.07% |
| O=C(Nc1ccc(NC(=O)c2cc3ccccc3o2)cc1)c1ccco1 | inconclusive: -59.5% |
| COCc1ccc(CN2CCCC(C(=O)c3sccc3C)C2)o1 (stereo not given) | inactive: -2.29% |
| COC(=O)C(C(=O)N1CCN(C)CC1)C1CCCCCC1 (stereo not given) | inactive: 41.3% |
| CC1CCCCN1CCNC(=O)c1ccc2c(=O)n(Cc3ccc(Cl)cc3)c(=S)[nH]c2c1 (stereo not given) | inactive: -27.3% |
| COC(=O)C1=NN(c2ccc(C)cc2)C2(S1)SC(C(C)=O)=C(C)N2c1ccccc1 (stereo not given) | inconclusive: -46.6% |
| CCC(=O)N(Cc1ccco1)c1nc(-c2ccccc2)cs1 | inactive: -4.91% |
| CC1CCCCN1CCCNC(=O)c1cc(Sc2cccc(Cl)c2)nc2ccccc12 (stereo not given) | inconclusive: -55.7% |
